Experimental data as given in patent publication US7977327B2, “Substituted pyrrolidine derivative” (Daiichi Sankyo Company, Limited, priority 2004, dated 2011).
Some entries share one result that the patent states for a list of compounds.

Tested on: Chinese hamster lung (CHL/IU) cells
Assay: Effect of inducing chromosomal aberration
Type: cell-based
Protocol: From each sample solution, samples to be tested having a concentration of 1, 3, 10, 30, 50, and 100 μg/mL (as reduced to free form) were prepared. As a negative control, 0.1 mol/L NaOH was employed.
Chinese hamster lung (CHL/IU) cells in logarithmic growth phase were employed. The cells were treated in a culture solution containing each sample to be tested for 24 hours. Subsequently, a chromosome specimen was prepared from the thus-treated cells. The culture solution employed was an Eagle's MEM (product of NISSUI PHARMACEUTICAL CO., LTD.) medium containing 15% fetal bovine serum (15% FBS-MEM).
In each sample concentration, 100 cells during metaphase were observed, to thereby record types and numbers of the chromosomal aberration.

Row | Structure (SMILES) | Concentration at which effects of inducing chromosomal aberration were exhibited [ng/mL]
1 | Cc1c(N2C[C@@H](N)[C@@H](C)C2)c(F)cc2c(=O)c(C(=O)O)cn(C3CC3)c12 [Comparative Compound C, reference compound] | ≥ 30000
2 | CC[C@H]1CN(c2c(F)cc3c(=O)c(C(=O)O)cn(C4CC4)c3c2C)C[C@H]1N [Comparative Compound D, 7-[(3S,4S)-3-Amino-4-ethylpyrrolidine-1-yl]-1-cyclopropyl-6-fluoro-8-methyl-1,4-dihydro-4-oxoquinoline-3-carboxylic acid] | ≥ 30000
